# According to the supplement of paper PMC8728848:
# The other results are listed elsewhere or left out.
# B1: MUB70 (Lactobacillus reuteri) (protein)
# chain: CVHVQYIDGETDQMLRQDDLDGYTDETIPYSTAEGIKKFEGDGYELFKDNFPAGEKFDNDDTNDQFYTVIF
# Experiments:
# Experiment in all cases: glycan array binding signal (z-score within array); higher = stronger binding
# Conditions in all cases: glycan notation: IUPAC condensed, linker removed
# [1] = target: GlcNAc(a1-6)Gal(b1-4)GlcNAc
# Method in brief: (§1)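 The Consortium for Functional Glycomics database supplied 3228 glycan arrays, of which those lacking an available protein sequence were dropped. The binding signal, a within-array Z-score, was averaged across arrays of the same protein sequence and across linkers. Negative scores can be read as non-binding.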
# [2] = target: GlcNAc(b1-2)Gal(b1-3)GalNAc
# Method in brief: as §1
# [3] = target: GlcNAc(b1-2)Man(a1-3)[GlcNAc(b1-2)Man(a1-6)]Man(b1-4)GlcNAc(b1-4)GlcNAc
# Method in brief: as §1
# [4] = target: GlcNAc(b1-2)Man(a1-3)[GlcNAc(b1-2)Man(a1-6)]Man(b1-4)GlcNAc(b1-4)[Fuc(a1-6)]GlcNAc
# Method in brief: as §1
# [5] = target: GlcNAc(b1-2)Man(a1-3)[GlcNAc(b1-4)][GlcNAc(b1-2)Man(a1-6)]Man(b1-4)GlcNAc(b1-4)GlcNAc
# Method in brief: as §1
# [6] = target: GlcNAc(b1-2)Man(a1-3)[GlcNAc(b1-4)][GlcNAc(b1-2)Man(a1-6)]Man(b1-4)GlcNAc(b1-4)[Fuc(a1-6)]GlcNAc
# Method in brief: as §1
# [7] = target: GlcNAc(b1-2)[GlcNAc(b1-4)]Man(a1-3)[GlcNAc(b1-2)Man(a1-6)]Man(b1-4)GlcNAc(b1-4)GlcNAc
# Method in brief: as §1
# [8] = target: GlcNAc(b1-2)[GlcNAc(b1-4)]Man(a1-3)[GlcNAc(b1-4)][GlcNAc(b1-2)Man(a1-6)]Man(b1-4)GlcNAc(b1-4)GlcNAc
# Method in brief: as §1
# [9] = target: GlcNAc(b1-2)[GlcNAc(b1-4)]Man(a1-3)[GlcNAc(b1-4)][GlcNAc(b1-2)[GlcNAc(b1-6)]Man(a1-6)]Man(b1-4)GlcNAc(b1-4)GlcNAc
# Method in brief: as §1
# [10] = target: GlcNAc(b1-2)[GlcNAc(b1-4)]Man(a1-3)[GlcNAc(b1-4)][GlcNAc(b1-2)[GlcNAc(b1-6)]Man(a1-6)]Man(b1-4)GlcNAc(b1-4)[Fuc(a1-6)]GlcNAc
# Method in brief: as §1
# [11] = target: GlcNAc(b1-2)[GlcNAc(b1-6)]Man(a1-6)[GlcNAc(b1-2)Man(a1-3)]Man(b1-4)GlcNAc(b1-4)GlcNAc
# Method in brief: as §1
# [12] = target: GlcNAc(b1-2)[GlcNAc(b1-6)]Man(a1-6)[GlcNAc(b1-2)Man(a1-3)]Man(b1-4)GlcNAc(b1-4)[Fuc(a1-6)]GlcNAc
# Method in brief: as §1
# [13] = target: GlcNAc(b1-2)[GlcNAc(b1-6)]Man(a1-6)[GlcNAc(b1-4)][GlcNAc(b1-2)Man(a1-3)]Man(b1-4)GlcNAc(b1-4)GlcNAc
# Method in brief: as §1
# GlcNAc(b1-3)Fuc = target: GlcNAc(b1-3)Fuc
# Method in brief: as §1
# GlcNAc(b1-3)Gal = target: GlcNAc(b1-3)Gal
# Method in brief: as §1
# [14] = target: GlcNAc(b1-3)Gal(b1-3)GalNAc
# Method in brief: as §1
# GlcNAc(b1-3)Gal(b1-4)Glc = target: GlcNAc(b1-3)Gal(b1-4)Glc
# Method in brief: as §1
# [15] = target: GlcNAc(b1-3)Gal(b1-4)GlcNAc
# Method in brief: as §1
# [16] = target: GlcNAc(b1-3)Gal(b1-4)GlcNAc(b1-2)Man(a1-3)[GlcNAc(b1-3)Gal(b1-4)GlcNAc(b1-2)Man(a1-6)]Man(b1-4)GlcNAc(b1-4)GlcNAc
# Method in brief: as §1
# [17] = target: GlcNAc(b1-3)Gal(b1-4)GlcNAc(b1-2)Man(a1-3)[GlcNAc(b1-3)Gal(b1-4)GlcNAc(b1-2)Man(a1-6)]Man(b1-4)GlcNAc(b1-4)[Fuc(a1-6)]GlcNAc
# Method in brief: as §1
# [18] = target: GlcNAc(b1-3)Gal(b1-4)GlcNAc(b1-2)[GlcNAc(b1-3)Gal(b1-4)GlcNAc(b1-6)]Man(a1-6)[GlcNAc(b1-3)Gal(b1-4)GlcNAc(b1-2)Man(a1-3)]Man(b1-4)GlcNAc(b1-4)GlcNAc
# Method in brief: as §1
# [19] = target: GlcNAc(b1-3)Gal(b1-4)GlcNAc(b1-3)Gal(b1-4)GlcNAc
# Method in brief: as §1
# [20] = target: GlcNAc(b1-3)Gal(b1-4)GlcNAc(b1-3)Gal(b1-4)GlcNAc(b1-2)Man(a1-3)[GlcNAc(b1-3)Gal(b1-4)GlcNAc(b1-3)Gal(b1-4)GlcNAc(b1-2)Man(a1-6)]Man(b1-4)GlcNAc(b1-4)GlcNAc
# Method in brief: as §1
# [21] = target: GlcNAc(b1-3)Gal(b1-4)GlcNAc(b1-3)Gal(b1-4)GlcNAc(b1-2)Man(a1-3)[GlcNAc(b1-3)Gal(b1-4)GlcNAc(b1-3)Gal(b1-4)GlcNAc(b1-2)Man(a1-6)]Man(b1-4)GlcNAc(b1-4)[Fuc(a1-6)]GlcNAc
# Method in brief: as §1
# [22] = target: GlcNAc(b1-3)Gal(b1-4)GlcNAc(b1-3)Gal(b1-4)GlcNAc(b1-2)[GlcNAc(b1-3)Gal(b1-4)GlcNAc(b1-3)Gal(b1-4)GlcNAc(b1-6)]Man(a1-6)[GlcNAc(b1-3)Gal(b1-4)GlcNAc(b1-3)Gal(b1-4)GlcNAc(b1-2)Man(a1-3)]Man(b1-4)GlcNAc(b1-4)[Fuc(a1-6)]GlcNAc
# Method in brief: as §1
# [23] = target: GlcNAc(b1-3)Gal(b1-4)GlcNAc(b1-3)Gal(b1-4)GlcNAc(b1-3)Gal(b1-4)GlcNAc(b1-2)Man(a1-3)[GlcNAc(b1-3)Gal(b1-4)GlcNAc(b1-3)Gal(b1-4)GlcNAc(b1-3)Gal(b1-4)GlcNAc(b1-2)Man(a1-6)]Man(b1-4)GlcNAc(b1-4)GlcNAc
# Method in brief: as §1
# [24] = target: GlcNAc(b1-3)Gal(b1-4)GlcNAc(b1-3)Gal(b1-4)GlcNAc(b1-3)Gal(b1-4)GlcNAc(b1-2)Man(a1-3)[GlcNAc(b1-3)Gal(b1-4)GlcNAc(b1-3)Gal(b1-4)GlcNAc(b1-3)Gal(b1-4)GlcNAc(b1-2)Man(a1-6)]Man(b1-4)GlcNAc(b1-4)[Fuc(a1-6)]GlcNAc
# Method in brief: as §1
# [25] = target: GlcNAc(b1-3)Gal(b1-4)GlcNAc(b1-3)Gal(b1-4)GlcNAc(b1-3)Gal(b1-4)GlcNAc(b1-2)[GlcNAc(b1-3)Gal(b1-4)GlcNAc(b1-3)Gal(b1-4)GlcNAc(b1-3)Gal(b1-4)GlcNAc(b1-6)]Man(a1-6)[GlcNAc(b1-3)Gal(b1-4)GlcNAc(b1-3)Gal(b1-4)GlcNAc(b1-3)Gal(b1-4)GlcNAc(b1-2)Man(a1-3)]Man(b1-4)GlcNAc(b1-4)[Fuc(a1-6)]GlcNAc
# Method in brief: as §1
# [26] = target: GlcNAc(b1-3)Gal(b1-4)GlcNAc(b1-3)Gal(b1-4)GlcNAc(b1-3)Gal(b1-4)GlcNAc(b1-3)Gal(b1-4)GlcNAc(b1-2)Man(a1-3)[GlcNAc(b1-3)Gal(b1-4)GlcNAc(b1-3)Gal(b1-4)GlcNAc(b1-3)Gal(b1-4)GlcNAc(b1-3)Gal(b1-4)GlcNAc(b1-2)Man(a1-6)]Man(b1-4)GlcNAc(b1-4)GlcNAc
# Method in brief: as §1
# [27] = target: GlcNAc(b1-3)Gal(b1-4)GlcNAc(b1-3)Gal(b1-4)GlcNAc(b1-3)Gal(b1-4)GlcNAc(b1-3)Gal(b1-4)GlcNAc(b1-2)Man(a1-3)[GlcNAc(b1-3)Gal(b1-4)GlcNAc(b1-3)Gal(b1-4)GlcNAc(b1-3)Gal(b1-4)GlcNAc(b1-3)Gal(b1-4)GlcNAc(b1-2)Man(a1-6)]Man(b1-4)GlcNAc(b1-4)[Fuc(a1-6)]GlcNAc
# Method in brief: as §1
# [28] = target: GlcNAc(b1-3)Gal(b1-4)GlcNAc(b1-3)Gal(b1-4)GlcNAc(b1-3)Gal(b1-4)GlcNAc(b1-3)Gal(b1-4)GlcNAc(b1-2)[GlcNAc(b1-3)Gal(b1-4)GlcNAc(b1-3)Gal(b1-4)GlcNAc(b1-3)Gal(b1-4)GlcNAc(b1-3)Gal(b1-4)GlcNAc(b1-6)]Man(a1-6)[GlcNAc(b1-3)Gal(b1-4)GlcNAc(b1-3)Gal(b1-4)GlcNAc(b1-3)Gal(b1-4)GlcNAc(b1-3)Gal(b1-4)GlcNAc(b1-2)Man(a1-3)]Man(b1-4)GlcNAc(b1-4)[Fuc(a1-6)]GlcNAc
# Method in brief: as §1
# [29] = target: GlcNAc(b1-3)Gal(b1-4)GlcNAc(b1-3)Gal(b1-4)GlcNAc(b1-3)GalNAc
# Method in brief: as §1
# [30] = target: GlcNAc(b1-3)Gal(b1-4)GlcNAc(b1-3)GalNAc
# Method in brief: as §1
# [31] = target: GlcNAc(b1-3)Gal(b1-4)GlcNAc(b1-3)[GlcNAc(b1-3)Gal(b1-4)GlcNAc(b1-3)]GalNAc
# Method in brief: as §1
# [32] = target: GlcNAc(b1-3)Gal(b1-4)GlcNAc(b1-6)[Gal(b1-3)]GalNAc
# Method in brief: as §1
# [33] = target: GlcNAc(b1-3)Gal(b1-4)GlcNAc(b1-6)[GlcNAc(b1-3)Gal(b1-3)]GalNAc
# Method in brief: as §1
# [34] = target: GlcNAc(b1-3)Gal(b1-4)GlcNAc(b1-6)[GlcNAc(b1-3)]Gal(b1-4)GlcNAc
# Method in brief: as §1
# GlcNAc(b1-3)GalNAc = target: GlcNAc(b1-3)GalNAc
# Method in brief: as §1
# GlcNAc(b1-3)Man = target: GlcNAc(b1-3)Man
# Method in brief: as §1
# [35] = target: GlcNAc(b1-3)[GlcNAc(b1-4)][GlcNAc(b1-6)]GlcNAc
# Method in brief: as §1
# [36] = target: GlcNAc(b1-3)[GlcNAc(b1-6)]Gal(b1-4)GlcNAc
# Method in brief: as §1
# [37] = target: GlcNAc(b1-3)[GlcNAc(b1-6)]GalNAc
# Method in brief: as §1
# [38] = target: GlcNAc(b1-4)Gal(b1-4)GlcNAc
# Method in brief: as §1
# GlcNAc(b1-4)GlcNAc = target: GlcNAc(b1-4)GlcNAc
# Method in brief: as §1
# [39] = target: GlcNAc(b1-4)GlcNAc(b1-4)GlcNAc
# Method in brief: as §1
binder,measurement,setting,value
B1,glycan array binding signal (z-score),[1],-0.107
same,glycan array binding signal (z-score),[2],-0.21
same,glycan array binding signal (z-score),[3],-0.497
same,glycan array binding signal (z-score),[4],-0.609
same,glycan array binding signal (z-score),[5],0.036
same,glycan array binding signal (z-score),[6],0.5
same,glycan array binding signal (z-score),[7],0.353
same,glycan array binding signal (z-score),[8],0.655
same,glycan array binding signal (z-score),[9],0.034
same,glycan array binding signal (z-score),[10],0.481
same,glycan array binding signal (z-score),[11],-0.641
same,glycan array binding signal (z-score),[12],0.001
same,glycan array binding signal (z-score),[13],-0.216
same,glycan array binding signal (z-score),GlcNAc(b1-3)Fuc,0.101
same,glycan array binding signal (z-score),GlcNAc(b1-3)Gal,-0.757
same,glycan array binding signal (z-score),[14],-0.359
same,glycan array binding signal (z-score),GlcNAc(b1-3)Gal(b1-4)Glc,-0.483
same,glycan array binding signal (z-score),[15],-0.453
same,glycan array binding signal (z-score),[16],-0.049
same,glycan array binding signal (z-score),[17],1.11
same,glycan array binding signal (z-score),[18],-0.032
same,glycan array binding signal (z-score),[19],-0.485
same,glycan array binding signal (z-score),[20],2.17
same,glycan array binding signal (z-score),[21],0.956
same,glycan array binding signal (z-score),[22],0.962
same,glycan array binding signal (z-score),[23],1.75
same,glycan array binding signal (z-score),[24],0.974
same,glycan array binding signal (z-score),[25],0.94
same,glycan array binding signal (z-score),[26],0.142
same,glycan array binding signal (z-score),[27],0.523
same,glycan array binding signal (z-score),[28],0.318
same,glycan array binding signal (z-score),[29],-0.258
same,glycan array binding signal (z-score),[30],0.373
same,glycan array binding signal (z-score),[31],0.172
same,glycan array binding signal (z-score),[32],0.191
same,glycan array binding signal (z-score),[33],0.645
same,glycan array binding signal (z-score),[34],-0.335
same,glycan array binding signal (z-score),GlcNAc(b1-3)GalNAc,-0.402
same,glycan array binding signal (z-score),GlcNAc(b1-3)Man,-0.087
same,glycan array binding signal (z-score),[35],-0.31
same,glycan array binding signal (z-score),[36],-0.351
same,glycan array binding signal (z-score),[37],0.148
same,glycan array binding signal (z-score),[38],0.442
same,glycan array binding signal (z-score),GlcNAc(b1-4)GlcNAc,-0.21
same,glycan array binding signal (z-score),[39],-0.394

# No new results follow: an excerpt of the list.
binder,measurement,setting,value
B1,glycan array binding signal (z-score),[1],-0.107
same,glycan array binding signal (z-score),[2],-0.21
same,glycan array binding signal (z-score),[3],-0.497
same,glycan array binding signal (z-score),[4],-0.609
same,glycan array binding signal (z-score),[5],0.036
same,glycan array binding signal (z-score),[6],0.5
same,glycan array binding signal (z-score),[7],0.353
same,glycan array binding signal (z-score),[8],0.655
same,glycan array binding signal (z-score),[9],0.034
same,glycan array binding signal (z-score),[10],0.481
same,glycan array binding signal (z-score),[11],-0.641
same,glycan array binding signal (z-score),[12],0.001
